Laboratory results as given in publication PMC10318529.

Sequences of proteins named here, by UniProt entry; tags and fusion partners are left off. A change or cut given only in a name is not applied to a line headed by its entry.
UniProt P12643: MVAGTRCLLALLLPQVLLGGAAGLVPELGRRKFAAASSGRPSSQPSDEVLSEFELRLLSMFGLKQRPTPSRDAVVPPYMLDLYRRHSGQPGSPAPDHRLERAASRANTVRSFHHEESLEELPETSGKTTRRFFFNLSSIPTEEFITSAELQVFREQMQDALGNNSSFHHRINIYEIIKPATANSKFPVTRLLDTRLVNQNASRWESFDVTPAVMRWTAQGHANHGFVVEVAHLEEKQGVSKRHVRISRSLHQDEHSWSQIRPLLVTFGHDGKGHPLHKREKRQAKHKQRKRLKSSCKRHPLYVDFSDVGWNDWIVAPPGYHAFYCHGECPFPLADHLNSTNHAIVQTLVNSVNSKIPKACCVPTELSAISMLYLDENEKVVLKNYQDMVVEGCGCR

Biological target: T1, Matrix Gla protein (human (endogenous in bone marrow MSCs)) (UniProt P08493)
T1 sequence: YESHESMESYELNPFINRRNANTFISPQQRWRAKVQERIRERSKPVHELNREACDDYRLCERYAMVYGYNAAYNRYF
Test: co-IP; MSCs lysates in IP lysis buffer with 1% PMSF and phosphatase inhibitor; incubated overnight at 4 °C with antibodies against APPL1, MGP, BMP2 or IgG controls; Dynabeads Protein G, 3 h at 4 °C; Western blot

binding: binds
Substance: BMP2 (from UniProt P12643)

Results are given in words; binding and its absence hold for the method and conditions named. Binding seen in cells or lysates may run through a third protein. Binding calls can cover weak binding; strength is not graded here.
